# Test results published in the supplement of paper PMC11006884.
# The chains behind the UniProt entries cited, without tags or fusion partners. Where a name states a change or a piece, a line headed by the entry shows the natural chain unless it says otherwise.
# UniProt Q14498: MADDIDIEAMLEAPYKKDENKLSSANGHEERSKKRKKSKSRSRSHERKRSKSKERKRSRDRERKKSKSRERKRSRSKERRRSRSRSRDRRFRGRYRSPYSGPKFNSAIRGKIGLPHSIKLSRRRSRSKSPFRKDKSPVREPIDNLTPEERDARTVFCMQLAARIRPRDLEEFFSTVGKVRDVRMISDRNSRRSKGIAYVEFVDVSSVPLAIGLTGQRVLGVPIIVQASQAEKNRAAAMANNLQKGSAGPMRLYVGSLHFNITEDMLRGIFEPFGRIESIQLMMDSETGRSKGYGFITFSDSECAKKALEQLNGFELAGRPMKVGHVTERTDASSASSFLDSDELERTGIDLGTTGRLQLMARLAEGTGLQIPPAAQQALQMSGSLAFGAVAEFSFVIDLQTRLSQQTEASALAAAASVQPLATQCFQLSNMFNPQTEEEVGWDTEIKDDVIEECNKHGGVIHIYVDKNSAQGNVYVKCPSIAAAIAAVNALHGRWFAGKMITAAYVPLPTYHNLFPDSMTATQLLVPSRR
# UniProt Q14573, whole entry, looked up: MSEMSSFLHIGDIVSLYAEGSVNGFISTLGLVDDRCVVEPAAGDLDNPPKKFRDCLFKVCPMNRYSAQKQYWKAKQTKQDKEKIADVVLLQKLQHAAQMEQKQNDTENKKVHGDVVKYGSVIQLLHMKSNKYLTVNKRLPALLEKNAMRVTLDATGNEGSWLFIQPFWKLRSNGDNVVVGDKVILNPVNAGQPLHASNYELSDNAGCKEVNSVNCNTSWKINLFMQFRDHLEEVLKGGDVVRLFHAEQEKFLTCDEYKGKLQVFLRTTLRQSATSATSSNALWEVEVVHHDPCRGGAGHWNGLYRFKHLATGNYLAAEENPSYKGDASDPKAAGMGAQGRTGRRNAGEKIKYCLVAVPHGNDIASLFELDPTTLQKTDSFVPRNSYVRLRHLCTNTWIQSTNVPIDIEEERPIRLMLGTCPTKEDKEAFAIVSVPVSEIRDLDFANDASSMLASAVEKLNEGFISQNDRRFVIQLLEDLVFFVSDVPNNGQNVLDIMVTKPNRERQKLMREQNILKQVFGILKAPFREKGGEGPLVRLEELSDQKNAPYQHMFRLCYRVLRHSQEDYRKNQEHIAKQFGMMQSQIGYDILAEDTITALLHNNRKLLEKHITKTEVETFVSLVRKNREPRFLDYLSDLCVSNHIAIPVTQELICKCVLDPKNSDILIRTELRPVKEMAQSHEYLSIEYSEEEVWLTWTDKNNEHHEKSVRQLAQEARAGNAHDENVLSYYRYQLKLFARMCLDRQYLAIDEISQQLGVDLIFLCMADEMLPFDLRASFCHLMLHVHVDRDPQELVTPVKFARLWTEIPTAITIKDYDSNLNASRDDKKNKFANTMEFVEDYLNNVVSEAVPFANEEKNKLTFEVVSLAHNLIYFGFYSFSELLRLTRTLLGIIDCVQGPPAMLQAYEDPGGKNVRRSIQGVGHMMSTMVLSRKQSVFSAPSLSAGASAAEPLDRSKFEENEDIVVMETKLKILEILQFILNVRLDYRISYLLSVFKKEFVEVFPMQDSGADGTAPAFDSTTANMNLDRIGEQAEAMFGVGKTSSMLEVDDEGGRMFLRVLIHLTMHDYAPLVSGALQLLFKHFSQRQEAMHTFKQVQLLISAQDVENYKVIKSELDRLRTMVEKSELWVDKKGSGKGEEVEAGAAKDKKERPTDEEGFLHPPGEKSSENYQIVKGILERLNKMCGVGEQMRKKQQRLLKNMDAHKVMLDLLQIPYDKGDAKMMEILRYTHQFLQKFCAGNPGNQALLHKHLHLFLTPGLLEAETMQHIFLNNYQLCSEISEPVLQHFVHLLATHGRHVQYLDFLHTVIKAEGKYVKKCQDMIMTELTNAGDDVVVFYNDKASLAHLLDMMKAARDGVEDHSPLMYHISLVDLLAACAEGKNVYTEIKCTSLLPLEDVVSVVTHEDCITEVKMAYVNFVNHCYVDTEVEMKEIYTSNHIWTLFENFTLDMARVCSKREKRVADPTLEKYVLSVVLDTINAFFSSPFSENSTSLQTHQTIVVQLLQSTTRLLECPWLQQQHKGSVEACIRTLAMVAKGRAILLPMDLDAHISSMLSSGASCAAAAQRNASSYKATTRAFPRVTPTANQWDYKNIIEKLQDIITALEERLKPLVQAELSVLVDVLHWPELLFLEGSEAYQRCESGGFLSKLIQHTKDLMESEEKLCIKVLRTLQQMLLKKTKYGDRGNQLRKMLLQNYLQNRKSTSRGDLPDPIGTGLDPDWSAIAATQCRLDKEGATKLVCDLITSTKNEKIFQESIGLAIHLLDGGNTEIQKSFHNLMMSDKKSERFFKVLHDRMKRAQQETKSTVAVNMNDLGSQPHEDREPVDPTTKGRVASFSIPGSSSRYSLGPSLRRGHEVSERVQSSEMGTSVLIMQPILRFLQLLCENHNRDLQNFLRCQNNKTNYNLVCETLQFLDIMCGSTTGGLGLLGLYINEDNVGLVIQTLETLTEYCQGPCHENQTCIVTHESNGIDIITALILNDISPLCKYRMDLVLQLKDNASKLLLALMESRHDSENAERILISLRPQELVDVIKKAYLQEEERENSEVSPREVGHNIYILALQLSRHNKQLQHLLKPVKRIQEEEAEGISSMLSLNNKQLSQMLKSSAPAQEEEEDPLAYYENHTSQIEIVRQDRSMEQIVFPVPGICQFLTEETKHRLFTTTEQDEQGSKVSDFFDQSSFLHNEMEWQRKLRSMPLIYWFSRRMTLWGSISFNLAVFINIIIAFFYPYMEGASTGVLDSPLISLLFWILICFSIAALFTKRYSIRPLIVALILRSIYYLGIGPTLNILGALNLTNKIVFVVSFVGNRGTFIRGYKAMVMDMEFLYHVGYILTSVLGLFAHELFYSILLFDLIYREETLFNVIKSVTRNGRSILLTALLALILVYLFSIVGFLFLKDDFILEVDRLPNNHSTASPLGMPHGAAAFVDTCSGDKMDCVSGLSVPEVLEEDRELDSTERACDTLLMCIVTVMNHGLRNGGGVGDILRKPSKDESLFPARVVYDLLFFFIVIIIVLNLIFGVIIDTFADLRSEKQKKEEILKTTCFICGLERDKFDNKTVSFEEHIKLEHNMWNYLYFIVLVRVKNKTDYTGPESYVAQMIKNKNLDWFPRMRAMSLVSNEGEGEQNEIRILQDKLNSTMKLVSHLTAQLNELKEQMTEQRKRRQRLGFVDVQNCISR
# UniProt Q13642: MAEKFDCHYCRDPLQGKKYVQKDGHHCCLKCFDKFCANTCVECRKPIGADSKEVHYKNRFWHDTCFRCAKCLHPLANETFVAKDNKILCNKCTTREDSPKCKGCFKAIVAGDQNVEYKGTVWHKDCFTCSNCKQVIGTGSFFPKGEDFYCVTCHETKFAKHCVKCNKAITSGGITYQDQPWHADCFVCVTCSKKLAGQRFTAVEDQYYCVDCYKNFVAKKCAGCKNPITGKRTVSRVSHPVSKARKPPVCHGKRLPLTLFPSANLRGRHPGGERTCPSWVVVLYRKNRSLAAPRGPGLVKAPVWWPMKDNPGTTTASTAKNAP
# UniProt Q13867: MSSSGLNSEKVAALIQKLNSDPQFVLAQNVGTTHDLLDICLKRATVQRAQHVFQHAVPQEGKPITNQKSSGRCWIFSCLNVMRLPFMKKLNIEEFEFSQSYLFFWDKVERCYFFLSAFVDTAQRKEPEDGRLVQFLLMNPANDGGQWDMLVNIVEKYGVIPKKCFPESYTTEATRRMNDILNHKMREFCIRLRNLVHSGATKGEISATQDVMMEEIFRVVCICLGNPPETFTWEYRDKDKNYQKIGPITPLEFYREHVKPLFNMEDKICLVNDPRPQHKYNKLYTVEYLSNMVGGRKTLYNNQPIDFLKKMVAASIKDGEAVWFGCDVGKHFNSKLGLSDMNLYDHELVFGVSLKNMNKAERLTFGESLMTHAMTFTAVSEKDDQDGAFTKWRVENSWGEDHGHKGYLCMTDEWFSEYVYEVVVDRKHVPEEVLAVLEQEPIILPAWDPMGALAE
# UniProt Q14683: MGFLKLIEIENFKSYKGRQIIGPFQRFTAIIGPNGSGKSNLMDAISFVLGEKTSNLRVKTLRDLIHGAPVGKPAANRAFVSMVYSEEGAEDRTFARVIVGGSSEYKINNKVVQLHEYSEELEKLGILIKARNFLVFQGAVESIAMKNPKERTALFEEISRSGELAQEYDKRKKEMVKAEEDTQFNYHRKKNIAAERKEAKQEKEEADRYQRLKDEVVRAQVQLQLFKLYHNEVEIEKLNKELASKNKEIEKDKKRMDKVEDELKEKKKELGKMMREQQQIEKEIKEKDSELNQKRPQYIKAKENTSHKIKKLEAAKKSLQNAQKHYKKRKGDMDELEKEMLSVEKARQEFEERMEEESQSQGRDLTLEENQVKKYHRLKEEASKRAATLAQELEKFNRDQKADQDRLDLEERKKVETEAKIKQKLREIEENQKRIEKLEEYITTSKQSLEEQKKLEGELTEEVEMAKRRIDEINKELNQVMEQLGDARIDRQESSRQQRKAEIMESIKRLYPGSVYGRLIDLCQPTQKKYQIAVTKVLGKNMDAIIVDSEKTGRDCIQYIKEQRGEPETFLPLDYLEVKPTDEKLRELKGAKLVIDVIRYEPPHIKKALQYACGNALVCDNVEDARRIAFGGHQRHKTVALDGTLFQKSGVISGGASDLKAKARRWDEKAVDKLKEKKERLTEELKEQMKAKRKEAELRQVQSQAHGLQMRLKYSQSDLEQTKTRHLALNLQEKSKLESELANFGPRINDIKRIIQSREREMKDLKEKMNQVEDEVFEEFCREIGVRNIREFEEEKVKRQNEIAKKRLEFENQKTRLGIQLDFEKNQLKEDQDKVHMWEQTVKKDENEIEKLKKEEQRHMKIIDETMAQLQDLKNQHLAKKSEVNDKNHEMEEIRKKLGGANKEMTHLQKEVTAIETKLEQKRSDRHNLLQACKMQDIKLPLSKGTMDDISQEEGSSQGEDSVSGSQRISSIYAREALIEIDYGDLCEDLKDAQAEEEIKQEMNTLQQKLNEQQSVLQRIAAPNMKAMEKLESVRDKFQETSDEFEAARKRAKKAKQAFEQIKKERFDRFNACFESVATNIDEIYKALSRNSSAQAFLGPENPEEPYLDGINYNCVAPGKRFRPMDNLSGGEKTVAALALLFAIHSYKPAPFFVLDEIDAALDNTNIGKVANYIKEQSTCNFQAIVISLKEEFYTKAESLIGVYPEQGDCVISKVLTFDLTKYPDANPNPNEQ
# UniProt Q13541: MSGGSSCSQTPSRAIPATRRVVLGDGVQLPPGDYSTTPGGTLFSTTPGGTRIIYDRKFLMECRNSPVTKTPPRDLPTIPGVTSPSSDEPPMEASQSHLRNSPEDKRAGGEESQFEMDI
# UniProt Q13557, whole entry, looked up: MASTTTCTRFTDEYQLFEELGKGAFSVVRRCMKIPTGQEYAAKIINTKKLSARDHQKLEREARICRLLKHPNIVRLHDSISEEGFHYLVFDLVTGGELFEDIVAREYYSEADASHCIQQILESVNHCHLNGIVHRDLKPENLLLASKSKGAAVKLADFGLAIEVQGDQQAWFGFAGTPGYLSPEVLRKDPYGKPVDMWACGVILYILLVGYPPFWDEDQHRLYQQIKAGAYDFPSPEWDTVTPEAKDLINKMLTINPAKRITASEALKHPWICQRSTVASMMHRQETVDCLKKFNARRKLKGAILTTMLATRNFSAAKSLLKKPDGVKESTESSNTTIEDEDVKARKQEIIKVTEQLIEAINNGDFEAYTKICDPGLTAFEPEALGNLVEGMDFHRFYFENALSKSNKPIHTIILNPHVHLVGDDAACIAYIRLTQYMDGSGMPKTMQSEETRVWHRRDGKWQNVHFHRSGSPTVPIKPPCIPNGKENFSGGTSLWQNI
# UniProt Q13617, whole entry: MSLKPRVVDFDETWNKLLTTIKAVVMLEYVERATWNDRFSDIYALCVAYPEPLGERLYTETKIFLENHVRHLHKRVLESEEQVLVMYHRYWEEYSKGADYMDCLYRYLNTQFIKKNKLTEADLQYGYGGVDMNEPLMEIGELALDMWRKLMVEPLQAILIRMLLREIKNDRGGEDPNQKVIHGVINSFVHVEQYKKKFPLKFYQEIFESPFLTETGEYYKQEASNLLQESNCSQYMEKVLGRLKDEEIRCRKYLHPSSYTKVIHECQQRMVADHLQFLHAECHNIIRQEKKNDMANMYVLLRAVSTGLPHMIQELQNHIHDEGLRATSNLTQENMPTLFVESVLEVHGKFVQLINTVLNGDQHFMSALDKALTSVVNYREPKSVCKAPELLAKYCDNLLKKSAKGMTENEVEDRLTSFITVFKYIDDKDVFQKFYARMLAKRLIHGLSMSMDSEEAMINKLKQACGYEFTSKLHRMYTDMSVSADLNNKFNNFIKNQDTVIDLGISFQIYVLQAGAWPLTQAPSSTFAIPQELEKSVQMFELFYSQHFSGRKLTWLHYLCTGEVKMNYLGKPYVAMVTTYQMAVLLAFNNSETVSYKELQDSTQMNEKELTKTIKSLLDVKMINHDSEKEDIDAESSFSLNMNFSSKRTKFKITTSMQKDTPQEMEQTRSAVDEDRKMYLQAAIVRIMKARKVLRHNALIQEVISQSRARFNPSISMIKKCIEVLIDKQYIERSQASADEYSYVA
# The entries are a selection whose mix differs from that of the whole data set. This is a noisy data set.
# Compound: COC(=O)/C=C/c1ccccc1 [methyl cinnamate]
# Test: log2 ratio of iodoacetamide-alkyne labeling of the cysteine site, DMSO over compound (competition); higher = stronger covalent engagement of the cysteine by the compound, active = 1 or more
# Conditions: 500 µM; treatment time 1 h; system: HEK293T cell lysate
# Method in brief: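 The log2 competition ratio per cysteine is defined as mean reporter intensity in control channels over mean reporter intensity in compound channels. Lysate from HEK293T cells (2 mg/mL) received electrophile (500 µM) or vehicle for 1 h at ambient temperature, followed by iodoacetamide alkyne for 1 h. Samples were clicked to sCIP-TMT reagents, pooled, trypsin-digested overnight at 37 °C, streptavidin-enriched, acid-eluted and run on Orbitrap Eclipse LC-MS/MS with FAIMS, with quantification in FragPipe. Three replicates with duplicate channels were used, and any cysteine quantified in only one replicate was excluded.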
row,Target,log2 ratio of iodoacetamide-alkyne labeling
1,DYNC1H1 C1977 (UniProt Q14204),inactive: 0.034
2,RBM39 C303 (UniProt Q14498),inactive: 0.0917
3,DYNC1H1 C4510 (UniProt Q14204),inactive: 0.103
4,ITPR3 C2668 (UniProt Q14573),inactive: 0.113
5,URB2 C1132 (UniProt Q14146),inactive: -0.187
6,FHL1 C209 (UniProt Q13642),inactive: -0.0748
7,SPCS2 C17 (UniProt Q15005),inactive: 0.292
8,NCAPH C296 (UniProt Q15003),inactive: 0.109
9,BLMH C40 (UniProt Q13867),inactive: 0.273
10,EIF3A C404 (UniProt Q14152),inactive: 0.313
11,POLA2 C392 (UniProt Q14181),inactive: 0.157
12,SMC1A C781 (UniProt Q14683),inactive: 0.134
13,TUBB3 C303 (UniProt Q13509),inactive: -0.0439
14,NUMA1 C375 (UniProt Q14980),inactive: 0.227
15,GANAB C822 (UniProt Q14697),inactive: -0.00764
16,SMC1A C987 (UniProt Q14683),inactive: 0.224
17,EIF4EBP1 C7 (UniProt Q13541),inactive: 0.505
18,UniProt Q13557_C273,inactive: -0.0104
19,RRP1B C197 (UniProt Q14684),inactive: 0.205
20,MDC1 C26 (UniProt Q14676),inactive: 0.283
21,CUL2 C721 (UniProt Q13617),inactive: -0.171

# Exported tab-delimited: entries from further up
row	Target	log2 ratio of iodoacetamide-alkyne labeling
11	POLA2 C392 (UniProt Q14181)	inactive: 0.157
12	SMC1A C781 (UniProt Q14683)	inactive: 0.134
